Data reported in PubChem BioAssay AID504834 (National Center for Advancing Translational Sciences (NCATS), 2011).
The campaign covered roughly 320,000 compounds. About 22,000 (6.9%) were called active. The shares of active, inactive and inconclusive entries below differ from those in the screen. Calls come from the whole dose curve; as a rule, active = well fitted inhibition curve with a large enough effect; inconclusive = small, poorly fitted or top-dose-only effect, or another doubt; inactive = no such curve, though single readings can be large or run the other way. A potency beside an inconclusive call is a rough fit, not a confirmed value.

test: Primary qHTS for delayed death inhibitors of the malarial parasite plastid, 96 hour incubation; conditions: P. falciparum luciferase reporter growth; series mostly up to 28.7 µM
Outline: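 96 h incubation, 37 C, 5% CO2, of luciferase-reporter P. falciparum-infected RBCs (2% hematocrit, 0.05% parasitemia final) with test compounds; endpoint luminescence.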
Potency is the fitted concentration of half-maximal effect.

| Structure (SMILES) | Potency |
| --- | --- |
| CN1CCN(C(=O)C2=C[C@H](c3ccccc3)C[C@H](OCc3ccc(CO)cc3)O2)CC1 | inactive |
| N=c1c2cn[nH]c2nc(SCC(=O)c2ccc(Br)cc2)n1-c1ccc(Br)cc1 | active: 7.38 µM |
| CCc1ccccc1NC(=O)c1cccc(NC(=O)/C=C/c2ccco2)c1 | inactive |
| CC(C)n1c(=O)n(CC(=O)NCC2CCCO2)c(=O)c2c3c(sc21)COC(C)(C)C3 (stereo not given) | inconclusive: 14.7 µM [inhibitor, single point] |
| CC1(C)Cc2c(sc(NC(=O)c3ccc(S(=O)(=O)N4CCCCCC4)cc3)c2C(N)=O)C(C)(C)N1 | inconclusive: 18.5 µM [inhibitor, single point] |
| CNC(=S)N1N=C(c2ccc(OC)cc2)CC1c1ccc(Cl)cc1Cl (stereo not given) | active: 5.86 µM |
| Cc1ccc(-n2c(COc3c(C)cccc3C)nnc2SCC(=O)Nc2nccs2)cc1 | inconclusive: 0.828 µM [inhibitor, partial curve, poor fit] |
| Cc1ccc(Cl)c(OCC(=O)NCC(c2cccs2)N2CCOCC2)c1 (stereo not given) | inconclusive: 18.5 µM [inhibitor, single point] |
| CCCc1cc2c(cc1NC(=O)c1ccco1)OCO2 | inconclusive: 18.5 µM [inhibitor, single point] |
| O=C(O)c1ccoc1CN1CCCCC1 | inconclusive: 10.4 µM [inhibitor, single point] |
| CCOc1ccc(NC(=S)N2CCN(S(=O)(=O)c3ccc(C)cc3)CC2)cc1 | inconclusive: 10.4 µM [inhibitor, single point] |
| Cc1ccc(Nc2ccc(S(=O)(=O)N3CCOCC3)cc2[N+](=O)[O-])cc1C | inconclusive: 9.28 µM [inhibitor, partial curve] |
| COc1cc(CN2CCCC(C(=O)c3ccc(C(C)(C)C)cc3)C2)cc(OC)c1O (stereo not given) | inactive |
| O=C(COc1ccccc1)NCC(c1ccco1)N1CCN(c2ccc(F)cc2)CC1 (stereo not given) | inconclusive: 9.28 µM [inhibitor, partial curve] |
| CC(=O)OCCNC(=O)c1cc2ccccc2oc1=O | active: 1.65 µM |
| COc1cc(CNCc2cc(OC)ccc2OC)cc(OC)c1 | inconclusive: 0.0415 µM [inhibitor, full curve, poor fit] |
| Cc1ccnc(NC(=O)c2cc(-c3ccc(Cl)s3)nc3ccccc23)c1 | inconclusive: 18.5 µM [inhibitor, single point] |
| COCCn1c(-c2ccc(C#N)cc2)nc2c1c(=O)[nH]c(=O)n2Cc1ccccc1 | inconclusive: 18.5 µM [inhibitor, single point] |
| CNC(=S)NNC(=O)c1sccc1C | inconclusive: 4.15 µM [inhibitor, partial curve, poor fit] |
| CC(C(=O)Nc1nc2ccccc2s1)n1cc([N+](=O)[O-])cn1 (stereo not given) | inconclusive: 1.65 µM [inhibitor, full curve, poor fit] |
| Fc1ccc(-n2cc(CNCCc3cccnc3)c(-c3ccccc3Cl)n2)cc1 | inconclusive: 13.1 µM [inhibitor, single point] |
| O=C(CNC(=O)c1cccs1)N/N=C/c1cccc(Br)c1 | inactive |

Arranged by molecular weight (ascending): part of the list above

| Structure (SMILES) | Potency |
| --- | --- |
| O=C(O)c1ccoc1CN1CCCCC1 | inconclusive: 10.4 µM [inhibitor, single point] |
| CNC(=S)NNC(=O)c1sccc1C | inconclusive: 4.15 µM [inhibitor, partial curve, poor fit] |
| CCCc1cc2c(cc1NC(=O)c1ccco1)OCO2 | inconclusive: 18.5 µM [inhibitor, single point] |
| CC(=O)OCCNC(=O)c1cc2ccccc2oc1=O | active: 1.65 µM |
| COc1cc(CNCc2cc(OC)ccc2OC)cc(OC)c1 | inconclusive: 0.0415 µM [inhibitor, full curve, poor fit] |
| CCc1ccccc1NC(=O)c1cccc(NC(=O)/C=C/c2ccco2)c1 | inactive |
| O=C(CNC(=O)c1cccs1)N/N=C/c1cccc(Br)c1 | inactive |
| Cc1ccnc(NC(=O)c2cc(-c3ccc(Cl)s3)nc3ccccc23)c1 | inconclusive: 18.5 µM [inhibitor, single point] |
| Cc1ccc(Nc2ccc(S(=O)(=O)N3CCOCC3)cc2[N+](=O)[O-])cc1C | inconclusive: 9.28 µM [inhibitor, partial curve] |
| CNC(=S)N1N=C(c2ccc(OC)cc2)CC1c1ccc(Cl)cc1Cl (stereo not given) | active: 5.86 µM |
| Cc1ccc(Cl)c(OCC(=O)NCC(c2cccs2)N2CCOCC2)c1 (stereo not given) | inconclusive: 18.5 µM [inhibitor, single point] |
| COCCn1c(-c2ccc(C#N)cc2)nc2c1c(=O)[nH]c(=O)n2Cc1ccccc1 | inconclusive: 18.5 µM [inhibitor, single point] |
| Fc1ccc(-n2cc(CNCCc3cccnc3)c(-c3ccccc3Cl)n2)cc1 | inconclusive: 13.1 µM [inhibitor, single point] |
| COc1cc(CN2CCCC(C(=O)c3ccc(C(C)(C)C)cc3)C2)cc(OC)c1O (stereo not given) | inactive |
| CCOc1ccc(NC(=S)N2CCN(S(=O)(=O)c3ccc(C)cc3)CC2)cc1 | inconclusive: 10.4 µM [inhibitor, single point] |
| O=C(COc1ccccc1)NCC(c1ccco1)N1CCN(c2ccc(F)cc2)CC1 (stereo not given) | inconclusive: 9.28 µM [inhibitor, partial curve] |
| CC(C)n1c(=O)n(CC(=O)NCC2CCCO2)c(=O)c2c3c(sc21)COC(C)(C)C3 (stereo not given) | inconclusive: 14.7 µM [inhibitor, single point] |
| Cc1ccc(-n2c(COc3c(C)cccc3C)nnc2SCC(=O)Nc2nccs2)cc1 | inconclusive: 0.828 µM [inhibitor, partial curve, poor fit] |
| CC1(C)Cc2c(sc(NC(=O)c3ccc(S(=O)(=O)N4CCCCCC4)cc3)c2C(N)=O)C(C)(C)N1 | inconclusive: 18.5 µM [inhibitor, single point] |

Carrying on.

| Structure (SMILES) | Potency |
| --- | --- |
| NCCc1c[nH]c2ccc(OCc3ccccc3)cc12 | inconclusive: 18.5 µM [inhibitor, single point] |
| COc1ccc(NC(=S)NC2CC3CCC(C2)N3Cc2ccco2)cc1 (stereo not given) | inactive |
| Cc1cc(C)n(CC(O)COc2ccc(Cl)cc2Cl)n1 (stereo not given) | inactive |
| COc1ccc(/C=C(/C#N)C(=O)Nc2ccccc2C)cc1C(=O)O | inconclusive: 2.08 µM [inhibitor, partial curve, poor fit] |
| COc1cccc(OC)c1C(=O)Nc1cccc(NC(=O)c2cccs2)c1 | inconclusive: 18.5 µM [inhibitor, single point] |
| COC(=O)C(CCSC)NS(=O)(=O)c1ccc(Cl)cc1 (stereo not given) | inconclusive: 13.1 µM [inhibitor, single point] |
| CCN(c1ccc(C)c(C)c1)S(=O)(=O)c1ccc2c(c1)CCN2C(=O)CCC(=O)O | inconclusive: 18.5 µM [inhibitor, single point] |
| CO[C@H]1C[C@@H](O[C@@H]2[C@H](C)[C@H](O[C@@H]3O[C@@H](C)C[C@@H](N(C)C)[C@@H]3O)[C@H](C)C[C@]3(CO3)C(=O)[C@H](C)[C@H](O)[C@H](C)[C@H](C)OC(=O)[C@@H]2C)O[C@@H](C)[C@H]1O | inactive |
| CC(C)(C)c1ccc(S(=O)(=O)N2CC3CC(C2)c2cccc(=O)n2C3)cc1 (stereo not given) | inactive |
| CCCN(CCC)C(=O)c1cn(CC)c2ccc(S(=O)(=O)N3CCCCC3)cc2c1=O | inconclusive: 18.5 µM [inhibitor, single point] |
| Cc1cc(CNC(=O)COC(=O)c2ccc(Cl)c(N)c2)cc(C)c1O | inconclusive: 13.1 µM [inhibitor, partial curve, poor fit] |
| CN(CCOc1ccc(Cl)cc1)C(=O)C1CCN(C(=O)c2ccc(F)cc2)CC1 | inconclusive: 8.28 µM [inhibitor, partial curve, poor fit] |
| CCOc1cc(N2CCOCC2)c(OCC)cc1NC(=O)c1cc(C)nc2ccccc12 | inconclusive: 2.08 µM [inhibitor, partial curve, poor fit] |
| CCOc1ccccc1NC(=O)CSc1nnc(CCC(=O)Nc2ccccc2F)n1C | inactive |
| COc1ccccc1N1CCN(CC(O)COCCOc2ccc(Br)cc2)CC1 (stereo not given) | active: 13.1 µM |
| COc1cc([C@@H]2c3cc4c(cc3[C@@H](O)[C@H]3COC(=O)[C@H]23)OCO4)cc(OC)c1O[Si](C)(C)C(C)(C)C | active: 8.28 µM |
| CCN(C(=O)c1ccc(S(=O)(=O)N(C)C)cc1)C(C)C(=O)Nc1ccc(C)cc1 (stereo not given) | inconclusive: 3.29 µM [inhibitor, full curve] |
| Cc1csc(NC(=O)C2CCN(S(=O)(=O)c3ccccc3F)CC2)n1 | inconclusive: 10.4 µM [inhibitor, single point] |
| Fc1ccc(C2=NNC(=NCc3ccccc3)SC2)cc1F | inconclusive: 18.5 µM [inhibitor, single point] |
| COc1ccccc1N(CC(=O)NC(C)C)S(=O)(=O)c1cccs1 | inconclusive: 18.5 µM [inhibitor, single point] |
| CC1=CC(C)(C)NC(=S)N1c1ccccc1 | inconclusive: 18.5 µM [inhibitor, single point] |
| COC(=O)CSc1ncc(OC)c(OC)n1 | inconclusive: 0.0033 µM [inhibitor, full curve, poor fit] |

| Structure (SMILES) | Potency |
| --- | --- |
| Cc1ccc(-c2nc3cc(N)ccc3o2)c(C)c1 | inactive |
| CC(=O)c1ccc(NS(=O)(=O)c2ccc3c(c2)CCC(=O)N3)cc1 | inconclusive: 18.5 µM [inhibitor, single point] |
| COC(=O)N/N=C\c1c(C)[nH]n(-c2ccccc2)c1=O | inconclusive: 18.5 µM [inhibitor, single point] |
| Cc1noc(C)c1COc1ccc(C(=O)Nc2ncccc2O)cc1 | inconclusive: 11.7 µM [inhibitor, partial curve, poor fit] |
| COC1=C(Nc2ccccc2OC)C(=O)c2ccccc2C1=O | active: 2.33 µM |
| O=C(Cc1ccc(Cl)cc1)NC1CCS(=O)(=O)C1 (stereo not given) | inconclusive: 11.7 µM [inhibitor, single point] |
| COc1cc(C)ccc1OCCCOc1c(Cl)cccc1Cl | active: 0.131 µM |
| CC(=O)C1=C(O)C(=O)N(CCc2c[nH]c3ccccc23)C1c1cccc(O)c1 (stereo not given) | inconclusive: 18.5 µM [inhibitor, single point] |
| COc1ccc(Cc2nc3ccc(C(=O)N(C)CCCN4CCOCC4)cc3o2)cc1 | inconclusive: 18.5 µM [inhibitor, single point] |
| O=C1c2ccc([N+](=O)[O-])cc2C(=O)N1CNc1ccccn1 | inconclusive: 4.15 µM [inhibitor, full curve] |
| Cc1c(NC(=O)OC(C)C)sc(=S)n1C | inactive |
| COc1ccccc1Nc1ncccc1C(=O)NCc1ccccc1 | inconclusive: 18.5 µM [inhibitor, single point] |
| COC(=O)COc1ccc(/C=C2\C(=O)NC(=S)N(c3ccc(C)cc3)C2=O)cc1OC | inconclusive: 7.38 µM [inhibitor, partial curve, poor fit] |
| CCOC(=O)Cc1nnc(NC(=O)CC)s1 | inconclusive: 0.522 µM [inhibitor, full curve] |
| CC(=O)c1ccc(N2CCN(C(=O)c3ccc4c(=O)n(-c5ccccc5)c(=O)[nH]c4c3)CC2)cc1 | inconclusive: 18.5 µM [inhibitor, partial curve, poor fit] |
| CCN1C(=O)[C@@H]2[C@@H](c3ccc(-c4ccccc4)cc3)N3CCCC[C@@]3(C(=O)OC)[C@@H]2C1=O | inconclusive: 18.5 µM [inhibitor, single point] |
| COc1ccc(CN(C(=O)c2ccco2)c2ccc(C)c(C)c2)cc1 | inactive |
| O=C(COc1ccccc1F)Nc1c2c(nn1-c1ccccc1)CS(=O)(=O)C2 | inconclusive: 18.5 µM [inhibitor, single point] |
| CCCCOC(=O)C1[C@H]2C(=O)N(c3ccccc3CC)C[C@]23C=C[C@H]1O3 (stereo not given in full) | inconclusive: 11.7 µM [inhibitor, single point] |
| COc1ccc(CCNC(=O)Cn2c(-c3nonc3N)nc3ccccc32)cc1OC | inconclusive: 0.262 µM [inhibitor, full curve, poor fit] |
| CN(C)c1oc(-c2ccccc2F)nc1C#N | inconclusive: 3.29 µM [inhibitor, partial curve, poor fit] |
